Experimental data from doi:10.1101/2020.04.22.053561.
These are yes or no findings as the source states them, for the method shown. In cells and extracts the contact can be indirect. Some binding calls cover weakened binding; strength is not graded here. For some assays here: Sequences can lack the tags named with a protein. Each block holds one binder with its values, some of them ahead of it.

Experiments:
[1] = target: T1, BCL9 (full-length, control tumors) (mouse (endogenous in mouse tumors)) (UniProt Q9D219); assay: co-IP
T1 sequence: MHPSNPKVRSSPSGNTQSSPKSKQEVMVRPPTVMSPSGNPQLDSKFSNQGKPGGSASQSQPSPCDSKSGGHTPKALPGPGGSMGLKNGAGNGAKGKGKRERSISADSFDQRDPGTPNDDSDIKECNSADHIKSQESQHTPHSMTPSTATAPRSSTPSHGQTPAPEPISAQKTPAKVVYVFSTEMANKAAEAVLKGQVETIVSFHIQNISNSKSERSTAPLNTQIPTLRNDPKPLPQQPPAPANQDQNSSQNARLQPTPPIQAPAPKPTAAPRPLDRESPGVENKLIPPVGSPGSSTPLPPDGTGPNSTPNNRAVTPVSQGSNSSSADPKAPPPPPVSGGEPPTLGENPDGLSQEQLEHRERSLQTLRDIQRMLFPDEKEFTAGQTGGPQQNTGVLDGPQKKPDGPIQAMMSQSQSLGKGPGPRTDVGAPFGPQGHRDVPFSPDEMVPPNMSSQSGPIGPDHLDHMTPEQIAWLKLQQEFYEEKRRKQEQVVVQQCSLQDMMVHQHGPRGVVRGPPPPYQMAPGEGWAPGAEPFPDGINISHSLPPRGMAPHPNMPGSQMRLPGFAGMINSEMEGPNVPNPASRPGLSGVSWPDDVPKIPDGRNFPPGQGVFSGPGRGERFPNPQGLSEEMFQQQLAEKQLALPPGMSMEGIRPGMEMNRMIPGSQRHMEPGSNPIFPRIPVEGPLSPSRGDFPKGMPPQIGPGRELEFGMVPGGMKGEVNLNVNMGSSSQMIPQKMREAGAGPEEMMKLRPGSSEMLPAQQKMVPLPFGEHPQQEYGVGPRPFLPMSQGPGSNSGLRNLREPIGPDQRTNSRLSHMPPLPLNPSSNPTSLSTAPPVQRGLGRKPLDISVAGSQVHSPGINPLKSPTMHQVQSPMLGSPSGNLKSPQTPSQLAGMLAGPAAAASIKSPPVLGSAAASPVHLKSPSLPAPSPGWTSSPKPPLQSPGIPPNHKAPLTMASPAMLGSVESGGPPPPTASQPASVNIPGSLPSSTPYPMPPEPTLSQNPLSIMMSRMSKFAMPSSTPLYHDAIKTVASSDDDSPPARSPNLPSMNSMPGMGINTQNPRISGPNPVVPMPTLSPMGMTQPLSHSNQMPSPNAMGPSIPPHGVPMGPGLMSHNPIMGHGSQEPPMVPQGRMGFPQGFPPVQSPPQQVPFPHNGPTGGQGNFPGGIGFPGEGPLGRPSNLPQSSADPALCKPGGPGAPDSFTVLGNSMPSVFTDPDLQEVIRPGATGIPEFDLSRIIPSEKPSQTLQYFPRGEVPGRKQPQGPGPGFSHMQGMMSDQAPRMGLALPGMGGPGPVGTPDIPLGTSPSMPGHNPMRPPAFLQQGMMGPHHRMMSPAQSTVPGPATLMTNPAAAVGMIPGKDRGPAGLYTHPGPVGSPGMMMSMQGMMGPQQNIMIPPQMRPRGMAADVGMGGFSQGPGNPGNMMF

[2] = target: T2, BCL9-GFP (pCDNA3.1-BCL9-GFP) (UniProt O00512); assay: proximity ligation
T2 sequence: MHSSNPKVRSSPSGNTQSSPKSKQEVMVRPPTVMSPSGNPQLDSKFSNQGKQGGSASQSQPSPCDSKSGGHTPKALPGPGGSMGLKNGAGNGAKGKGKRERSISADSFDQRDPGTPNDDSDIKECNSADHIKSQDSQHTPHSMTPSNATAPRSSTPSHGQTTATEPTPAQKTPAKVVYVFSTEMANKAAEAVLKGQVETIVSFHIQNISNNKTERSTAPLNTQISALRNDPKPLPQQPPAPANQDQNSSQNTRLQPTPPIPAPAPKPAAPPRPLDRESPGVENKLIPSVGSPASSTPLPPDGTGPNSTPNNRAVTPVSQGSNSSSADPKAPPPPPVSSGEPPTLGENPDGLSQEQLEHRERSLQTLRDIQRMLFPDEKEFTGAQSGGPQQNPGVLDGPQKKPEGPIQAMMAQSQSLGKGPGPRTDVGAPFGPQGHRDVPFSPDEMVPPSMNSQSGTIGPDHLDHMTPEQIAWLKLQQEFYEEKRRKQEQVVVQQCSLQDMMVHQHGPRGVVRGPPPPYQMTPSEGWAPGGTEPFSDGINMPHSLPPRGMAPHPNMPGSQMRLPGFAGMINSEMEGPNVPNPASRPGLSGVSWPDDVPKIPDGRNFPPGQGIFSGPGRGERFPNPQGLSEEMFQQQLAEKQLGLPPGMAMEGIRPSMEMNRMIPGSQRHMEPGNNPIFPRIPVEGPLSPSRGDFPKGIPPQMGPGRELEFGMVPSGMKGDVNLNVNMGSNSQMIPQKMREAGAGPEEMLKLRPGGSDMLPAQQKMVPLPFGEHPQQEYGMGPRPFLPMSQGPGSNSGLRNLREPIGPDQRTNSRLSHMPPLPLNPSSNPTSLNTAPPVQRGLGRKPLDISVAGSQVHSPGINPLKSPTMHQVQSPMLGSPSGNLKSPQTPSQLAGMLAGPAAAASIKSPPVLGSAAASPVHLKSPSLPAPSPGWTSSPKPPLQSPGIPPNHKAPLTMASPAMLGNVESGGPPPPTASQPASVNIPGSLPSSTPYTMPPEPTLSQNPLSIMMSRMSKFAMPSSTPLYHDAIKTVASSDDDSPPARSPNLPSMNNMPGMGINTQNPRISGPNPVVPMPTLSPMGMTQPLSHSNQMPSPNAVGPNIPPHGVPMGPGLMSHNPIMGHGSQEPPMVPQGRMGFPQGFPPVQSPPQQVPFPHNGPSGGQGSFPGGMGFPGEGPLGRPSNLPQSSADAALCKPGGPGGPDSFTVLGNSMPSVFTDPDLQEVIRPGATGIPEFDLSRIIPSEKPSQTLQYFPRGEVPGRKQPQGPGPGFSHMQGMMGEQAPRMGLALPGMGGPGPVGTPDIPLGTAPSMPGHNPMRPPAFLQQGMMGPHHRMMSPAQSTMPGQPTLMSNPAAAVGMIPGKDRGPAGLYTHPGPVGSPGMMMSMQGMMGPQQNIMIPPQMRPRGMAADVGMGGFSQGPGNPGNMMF

binding [1]: binds
B1: TBX3 (endogenous, mouse tumors) (protein, UniProt P70324 1-741)
chain: MSLSMRDPVIPGTSMAYHPFLPHRAPDFAMSAVLGHQPPFFPALTLPPNGAAALSLPGALAKPIMDQLVGAAETGIPFSSLGPQAHLRPLKTMEPEEDVEDDPKVHLEAKELWDQFHKRGTEMVITKSGRRMFPPFKVRCSGLDKKAKYILLMDIIAADDCRYKFHNSRWMVAGKADPEMPKRMYIHPDSPATGEQWMSKVVTFHKLKLTNNISDKHGFTLAFPSDHATWQGNYSFGTQTILNSMHKYQPRFHIVRANDILKLPYSTFRTYLFPETEFIAVTAYQNDKITQLKIDNNPFAKGFRDTGNGRREKRKQLTLQSMRVFEERHKKETSDESSSEQAAFNCFAQASSPAVSIVGTSNLKDLCPSEAESDAEAESKEEHGPEACDAAKISTTTAEEPGRDKGSPATRAQLFPAEPSRARDTARLDKASPDSRHSPATISSSTRVPGADERRSPGREGPVATKVDEARAIPAKDAFAPLSVQTDATAHLAQGPLPGLGFAPGLAGQQFFNGHPLFLHPGQFAMGGAFSSMAAGMGPLLATVSGASTGVSGLESTAMASAAAAQGLSGASAATLPFHLQQHVLASQGLAMSPFGSLFPYPYTYMAAAAAASTAAASSSVHRHPFLNLNSMRPRLRYSPYSIPVPVPDSSSLLATALPSMASAAGPLDGKAAALAASPASVAVDSGSELNSRSSTLSSGSVSLSPKLCSEKEAATSELQSIQRLVSGLEAKPDRSCSGSP

binding [2]: binds
B2: TBX3-3xflag (protein, UniProt O15119 1-743)
chain: MSLSMRDPVIPGTSMAYHPFLPHRAPDFAMSAVLGHQPPFFPALTLPPNGAAALSLPGALAKPIMDQLVGAAETGIPFSSLGPQAHLRPLKTMEPEEEVEDDPKVHLEAKELWDQFHKRGTEMVITKSGRRMFPPFKVRCSGLDKKAKYILLMDIIAADDCRYKFHNSRWMVAGKADPEMPKRMYIHPDSPATGEQWMSKVVTFHKLKLTNNISDKHGFTLAFPSDHATWQGNYSFGTQTILNSMHKYQPRFHIVRANDILKLPYSTFRTYLFPETEFIAVTAYQNDKITQLKIDNNPFAKGFRDTGNGRREKRKQLTLQSMRVFDERHKKENGTSDESSSEQAAFNCFAQASSPAASTVGTSNLKDLCPSEGESDAEAESKEEHGPEACDAAKISTTTSEEPCRDKGSPAVKAHLFAAERPRDSGRLDKASPDSRHSPATISSSTRGLGAEERRSPVREGTAPAKVEEARALPGKEAFAPLTVQTDAAAAHLAQGPLPGLGFAPGLAGQQFFNGHPLFLHPSQFAMGGAFSSMAAAGMGPLLATVSGASTGVSGLDSTAMASAAAAQGLSGASAATLPFHLQQHVLASQGLAMSPFGSLFPYPYTYMAAAAAASSAAASSSVHRHPFLNLNTMRPRLRYSPYSIPVPVPDGSSLLTTALPSMAAAAGPLDGKVAALAASPASVAVDSGSELNSRSSTLSSSSMSLSPKLCAEKEAATSELQSIQRLVSGLEAKPDRSRSASP
